Our source for the AC50 values is PubChem BioAssay AID493014 (National Center for Advancing Translational Sciences (NCATS), 2011).

This experiment is described as follows: qHTS Assay to Find Inhibitors of Chronic Active B-Cell Receptor Signaling. The conditions noted are these: ABC-DLBCL IkBa-CBG/CBR reporter, luminescence ratio (green luciferase fused to IkBa over red control in TMD8 lymphoma cells), 4 h. Put shortly: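 Doxycycline induced both beetle luciferases in TMD8 lymphoma cells; IKK-driven degradation limits the IkappaBalpha-fused green signal, while red luminescence normalises for cell number and nonspecific effects. Compounds tested up to 46 uM, 4 hrs.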
Background: In qHTS, concentration-response curves come from the screen itself.

[1] abbreviates: measured here: CBR red luminescence, cell number.
Where [2] appears, read: measured here: IkBa-CBG green luminescence.

The list shows a part of the results. These are further read-outs of the screen, such as a control signal, another cell line or another target. No call is given for them. Most of these compounds were active or inconclusive in the main read-out, so they are no random draw. Words in brackets tell the shape of the fitted curve; partial curves, single points and poor fits give uncertain potencies.

For the molecule `CC1(C)CC(=O)C2=C(C1)Oc1nc3ccccc3cc1C2C(C#N)C#N` (stereo not given), under setting [1], the AC50 was 6.31 µM [falling, full curve].

Consider `COc1cccc(C(=O)N2CCN(Cc3cc(Br)ccc3OC)CC2)c1`, for which, under setting [1], the AC50 is 23.1 µM [falling, partial curve, poor fit].

As to `O=C(O)c1ccc(CSc2nnc(-c3ccco3)o2)cc1`, the AC50 under setting [2] is 16.4 µM [falling, partial curve].

As to `CCCOc1ccc(C(CC(=O)O)NC(=O)c2sc3ccccc3c2Cl)cc1` (stereo not given), the half-maximal activity concentration (AC50) under setting [1] is 11.2 µM [falling, partial curve, poor fit].

For `CCC(CC)COC(=O)C1=C(C)NC(=O)NC1c1ccc(N(C)C)cc1` (stereo not given), the AC50 under setting [1] was 35.5 µM [rising, single point].

Turning to `O=C(N/C(=C\c1cccnc1)c1nc2ccccc2[nH]1)c1cccc(Br)c1`, the concentration at half-maximal activity (AC50) under setting [1] is 23.1 µM [rising, partial curve, poor fit] and the AC50 under setting [2] was 23.1 µM [falling, partial curve, poor fit].

As for `Cn1c(N)c(C(=O)COC(=O)Cc2cccs2)c(=O)n(C)c1=O`, the AC50 under setting [1] was 1.03 µM [falling, partial curve, poor fit].

In the case of `Cc1ccc(NC(=O)CSc2nc(NS(=O)(=O)c3ccc(C)cc3)cc(=O)[nH]2)cc1`, the AC50 under setting [1] was 6.51 µM [falling, partial curve, poor fit].

On to `O=C1CC(C(=O)N2CCCc3ccccc32)CN1c1ccc(F)cc1` (stereo not given), for which the AC50 under setting [1] is 3.16 µM [rising, partial curve, poor fit].

For `CC1(C)CC(=O)C(C=Nc2ccc(C(=O)c3ccccc3)cc2N=CC2=C(O)CC(C)(C)CC2=O)=C(O)C1`, the AC50 under setting [1] was 35.5 µM [falling, single point].

As to `O=C(Nc1cc(Cl)ccc1O)c1cc(-c2ccco2)on1`, under setting [1], the AC50 was 11.2 µM [falling, partial curve, poor fit].

Turning to `Cc1nc(SCc2nc3ccc(C(F)(F)F)cc3[nH]2)c2oc3ccccc3c2n1`, the half-maximal activity concentration (AC50) under setting [1] was 3.66 µM [rising, single point].

Turning to `CC(C)(CNC(=O)CCNC(=O)c1ccc(Br)cc1)N1CCOCC1`, the AC50 under setting [1] was 23.1 µM [rising, partial curve, poor fit].

For the molecule `COc1ccc(C(=O)N2CC3(CC(c4cccc(NC(=O)COc5ccc(Cl)cc5)c4)=NO3)C[C@@H]2C(N)=O)cc1` (stereo not given in full), the AC50 under setting [1] was 22.4 µM [falling, single point].

Consider `CCN(CC)CC(C)(C)COC(=O)c1oc2ccccc2c1C`, for which the AC50 under setting [1] was 3.98 µM [rising, partial curve, poor fit].

`COC(=O)c1c(NC(=S)NN2CCN(C)CC2)sc2c1CCC(C)C2` (stereo not given): the AC50 under setting [1] is 35.5 µM [falling, single point].

For `CC(=O)Nc1ccc(NC(=O)C(C)OC(=O)c2ccc(C)s2)cc1` (stereo not given), the AC50 under setting [1] was 25.1 µM [rising, partial curve, poor fit].

As to `CCCCN(C(=O)c1cnccn1)c1c(N)n(CCC)c(=O)[nH]c1=O`, the AC50 under setting [1] is 3.26 µM [rising, single point].

Take `NC(=O)NC(=O)C(c1ccccc1)N1CCN(S(=O)(=O)Cc2ccccc2)CC1` (stereo not given): the AC50 under setting [1] is 23.1 µM [rising, partial curve].

As to `CCOC(=O)c1sc2nc(SCC(=O)N(CC)CC)n(CCCN3CCCC3=O)c(=O)c2c1C`, under setting [1], the AC50 is 20 µM [falling, partial curve].

For `O=C(Nc1nc2c(s1)CN(Cc1ccccc1)CC2)c1c(F)cccc1F`, under setting [1], the concentration at half-maximal activity (AC50) was 11.2 µM [rising, single point].

On to `CC1C/C(=N\NC(=O)c2ccc(NS(=O)(=O)c3ccc(Br)cc3)cc2)CC(C)(C)C1` (stereo not given), for which the AC50 under setting [1] is 14.6 µM [falling, partial curve, poor fit].

For `COc1cccc(CNC(=O)c2nnn(-c3ccc(OC(F)(F)F)cc3)c2N)c1`, the AC50 under setting [1] was 0.82 µM [rising, full curve, poor fit].

For the molecule `O=C(Nc1ccccn1)c1ccc2ccccc2c1O`, the AC50 under setting [1] is 11.2 µM [falling, partial curve].

Regarding `CCN1CCN(C(=O)/C=C/c2cccc(Cl)c2)CC1`, under setting [1], the AC50 was 22.4 µM [rising, single point].

With `O=C(Nc1cccc2ccccc12)/C(Cl)=C/c1ccccc1`, the AC50 under setting [1] is 16.4 µM [falling, partial curve, poor fit].

As for `O=C(OCC(=O)N1CCN(C(=O)c2ccco2)CC1)c1ccccc1NCCO`, under setting [1], the AC50 is 16.4 µM [falling, single point].

As to `O=C(O)CCn1cc(/C=C2\NC(=S)N(c3ccccc3)C2=O)c(-c2ccc(Br)cc2)n1`, under setting [1], the AC50 is 0.631 µM [falling, partial curve, poor fit].

For the molecule `Cc1cc(=O)oc2cc(OCCC[n+]3ccccc3)ccc12`, under setting [1], the AC50 was 5.62 µM [rising, single point].

In the case of `C=C1c2cc3c(cc2NC(=S)N1Cc1ccccc1)OCO3`, the concentration at half-maximal activity (AC50) under setting [1] was 25.1 µM [falling, single point] and the concentration at half-maximal activity (AC50) under setting [2] was 15.8 µM [rising, partial curve, poor fit].

With `Cc1cc(=O)[nH]c(N/N=C/C=C/c2ccccc2)n1`, under setting [1], the AC50 was 35.5 µM [falling, single point].

Regarding `Cn1c(N)c(C(=O)NCc2ccccc2Cl)sc1=S`, the AC50 under setting [1] is 1.3 µM [falling, full curve, poor fit].

As to `Oc1c(Br)cccc1/C=N/c1ncn[nH]1`, the concentration at half-maximal activity (AC50) under setting [1] is 2 µM [rising, partial curve, poor fit].

`Cc1c(NC(=O)C(C)OC(=O)CC2Sc3ccccc3NC2=O)c(=O)n(-c2ccccc2)n1C` (stereo not given): the AC50 under setting [1] is 35.5 µM [rising, partial curve, poor fit].

Consider `O=C(NC(=S)N1CCN(Cc2ccccc2)CC1)c1ccco1`, for which the concentration at half-maximal activity (AC50) under setting [2] is 25.1 µM [falling, single point].

As for `Cc1onc(COc2ccccc2O)c1Br`, the half-maximal activity concentration (AC50) under setting [1] was 6.51 µM [rising, full curve, poor fit].

`Cc1ccc(-c2csc(N3CCC(C(N)=O)(N4CCCCC4)CC3)n2)cc1`: under setting [1], the concentration at half-maximal activity (AC50) was 18.4 µM [falling, single point].

Take `O=C(Nc1cccc(Cl)c1)Nc1ccc2c(c1)OCO2`: the AC50 under setting [1] was 29.1 µM [falling, single point].

With `C(=N\Nc1ccccc1)/c1ccc(N2CCOCC2)cc1`, under setting [1], the AC50 was 3.16 µM [falling, partial curve, poor fit].

Consider `CC1CC1C(=O)OCC(=O)c1c(N)n(C)c(=O)n(C)c1=O` (stereo not given), for which the AC50 under setting [1] was 0.112 µM [falling, full curve, poor fit].

As for `Cc1ccc(/C=C/C(=O)N2CCN(Cc3ccccc3)CC2)o1`, the AC50 under setting [1] was 20.6 µM [falling, partial curve].

For the molecule `CC(C)(C)C(Cn1ccnc1)NC(=O)c1ccc2nc(C3CC3)oc2c1` (stereo not given), the AC50 under setting [1] is 0.112 µM [falling, full curve, poor fit].

Turning to `CC(C)c1ccc(Nc2nc(NCc3ccco3)nc(N3CCOCC3)n2)cc1`, the AC50 under setting [1] was 8.91 µM [rising, partial curve, poor fit].

Turning to `COc1ccccc1C(=O)NC(=Nc1nc2ccccc2o1)NC(=O)c1ccccc1OC`, the AC50 under setting [1] is 16.4 µM [falling, single point].

For the molecule `CC(C)/C=N/NC(=O)c1ccc(Cl)cc1`, the AC50 under setting [1] is 0.461 µM [falling, partial curve, poor fit].

`COC(=O)c1[nH]c2ccc(F)cc2c1NS(=O)(=O)c1ccc(OC)cc1`: under setting [2], the AC50 is 18.4 µM [falling, partial curve, poor fit].

`CCN(CC)c1ccc(-n2cc3c(=O)n(C)c(=O)n(C)c3c2)cc1`: under setting [1], the half-maximal activity concentration (AC50) was 11.2 µM [falling, single point].

Turning to `O=C(NNC(=O)c1cc(Cl)ccc1[N+](=O)[O-])c1csc(N2CCOCC2)n1`, the AC50 under setting [1] was 8.2 µM [falling, partial curve].

`O=C(NNC(=O)c1ccc(Br)s1)c1cccc(Cl)c1`: the AC50 under setting [1] was 14.6 µM [falling, partial curve].

In the case of `CCCCN(CCCC)CCCNC(=O)CC1Oc2ccc(C)cc2NC1=O` (stereo not given), the AC50 under setting [1] is 0.82 µM [rising, full curve, poor fit].

On to `CCC(C)NC(=O)CSc1nc2cc3c(cc2c(=O)n1Cc1ccc(C(=O)NCCc2ccc(OC)c(OC)c2)cc1)OCO3` (stereo not given), for which the AC50 under setting [1] is 35.5 µM [rising, single point].

`COc1cc(/C=N/NC(=O)CCn2cnc(-c3ccccc3)c2-c2ccccc2)ccc1O`: under setting [1], the AC50 was 18.4 µM [falling, single point].

Take `CCc1ccc(C(=O)Cc2cc3cccc(OC)c3oc2=O)cc1`: the AC50 under setting [1] is 0.794 µM [falling, full curve].

On to `COc1ccc(CNn2c(-c3cccc(C)c3)nc3ccccc3c2=O)cc1OC`, for which the AC50 under setting [1] is 29.1 µM [rising, single point].

On to `COc1cc(OC)cc(-c2cc3cc(F)ccc3cn2)c1`, for which the concentration at half-maximal activity (AC50) under setting [1] was 6.51 µM [falling, single point].

As to `CCCN(CCC)C(=O)CSc1nc2n[nH]c(C)c2c(=N)n1-c1ccc(OC)cc1`, under setting [1], the AC50 is 28.2 µM [falling, single point].

As for `COc1ccc(NC(=O)Cn2ncc(Cl)c(Cl)c2=O)cc1S(=O)(=O)N1CCOCC1`, the AC50 under setting [1] is 29.1 µM [falling, single point] and the AC50 under setting [2] is 23.1 µM [rising, partial curve, poor fit].

In the case of `CCOC(=O)CNC(=O)C1(c2ccccc2)CCCC1`, under setting [1], the AC50 is 0.164 µM [falling, full curve, poor fit].

Take `Cc1ccc2nc(-c3ccc(Br)o3)oc(=O)c2c1`: the half-maximal activity concentration (AC50) under setting [1] is 2.31 µM [falling, full curve].

On to `N/C(Cc1ccc(Cl)cc1Cl)=N\OC(=O)c1ccc(Br)o1`, for which the AC50 under setting [1] was 10 µM [rising, single point].

In the case of `CS(=O)(=O)n1nc(-c2ccc(Cl)cc2)nc1SCc1ccccc1`, the AC50 under setting [1] was 2.91 µM [rising, partial curve].

Take `CN(Cc1c(C(=O)N(C)Cc2ccccc2)nc2ccccn12)CC1Cc2ccccc2O1` (stereo not given): the concentration at half-maximal activity (AC50) under setting [1] was 2.24 µM [falling, single point].

Broadly, the AC50 is the concentration giving half of the maximal activity seen.
